Several values for one entry are separate records, joined by “and”; a condition that tells them apart may be missing. Identical values can stand only once. The campaign covered roughly 300,000 compounds. About 5,400 (1.8%) were called active. Inconclusive results, whose numbers are uncertain, are shown with a selection of clear calls. Calls come from the whole dose curve; tested in HEK293 cells. Potencies beside an inconclusive call are fits to weak or partial responses and may not hold up.
Experiment: qHTS for inhibitors of binding or entry into cells for Marburg Virus
Conditions: Marburg virus pseudotyped entry inhibition, cell reporter; series mostly up to 37.8 µM
For `O=C(Nc1nc2ccc([N+](=O)[O-])cc2s1)c1ccc(S(=O)(=O)N2CCCc3ccccc32)cc1`, the Potency was inconclusive: 3.16 µM [inhibitor, partial curve, poor fit]. With `Cc1cc2n(n1)C(c1c[nH]c3ccccc13)Nc1ccccc1-2` (centres undefined) the Potency was inconclusive: 2.24 µM [activator, partial curve]. With `CCn1cc(S(=O)(=O)Nc2cc(F)ccc2C)cn1` the Potency was inconclusive: 3.98 µM [inhibitor, single point]. In the case of `O=C(N/N=C/c1ccc(O)c2ncccc12)c1cccc(Br)c1`, the Potency is reported as active: 13 µM. For `CCOC(=O)c1ccc(NC(=O)N2CCCCC2)cc1`, the Potency was “inactive”. With `COC(=O)/C(C#N)=C/c1c(Oc2cc(C)cc(C)c2)nc2c(C)cccn2c1=O` the Potency was inconclusive: 11.6 µM [activator, partial curve, poor fit]. With `CCOC(=O)c1cc(OC(=O)c2ccccc2OC)n(-c2ccccc2)n1` the Potency was “inactive”. With `CC/C=C\CC[C@H](OC(=O)c1ccc(Br)cc1)C1=CCCCC1=O` the Potency was inconclusive: 5.31 µM [activator, partial curve, poor fit]. In the case of `CN(CCCNC(=O)c1cc2c(=O)n(C)c3ccccc3c2s1)Cc1ccccc1`, the Potency is reported as inconclusive: 6.31 µM [inhibitor, single point]. With `O=C(Cn1c(=O)n(-c2ccccc2)c(=O)c2ccc(C(=O)NCc3ccc4c(c3)OCO4)cc21)Nc1ccc(F)c(Cl)c1` the Potency was inconclusive: 2.51 µM [inhibitor, partial curve, poor fit]. For `Cc1ccc(NC(=O)Nc2cccs2)c(C)c1`, the Potency was “inactive”. With `Cc1ccc(NC(=O)Cc2ccccc2Cl)cc1S(=O)(=O)N(C)C` the Potency was inconclusive: 15.8 µM [inhibitor, single point]. With `O=C(CSc1ccccc1)NCc1ccccc1` the Potency was “inactive”. For `O=C(CCC(=O)c1cccs1)NNC(=O)c1cccc(Cl)c1`, the Potency was “inactive”. In the case of `CCOC(=O)c1c(NC(=O)c2ccn(CC)n2)sc2c1CCCC2`, the Potency is reported as inconclusive: 0.651 µM [inhibitor, single point]. With `CCC(CC)c1nnc(NC(=O)Cc2cccs2)s1` the Potency was inconclusive: 6.31 µM [inhibitor, single point]. For `COC(=O)C1(CCSC)NC(c2ccccc2F)C2C(=O)N(c3ccc4c(c3)OCCO4)C(=O)C21` (centres undefined), the Potency was inconclusive: 6.31 µM [inhibitor, single point]. For `CCOC(=O)c1cc(C)n(Cc2cccc(OC)c2OC)c1C`, the Potency was “inactive”. With `CC1CC1C(=O)OCC(=O)NCc1ccc(Cl)cc1Cl` (centres undefined) the Potency was inconclusive: 6.31 µM [inhibitor, single point]. In the case of `Oc1ccc(Nc2nc(-c3cccnc3)cs2)cc1`, the Potency is reported as inconclusive: 35.5 µM [inhibitor, single point]. For `c1ccc(CN2CCN(C(c3ccccc3)c3ccccc3)CC2)cc1`, the Potency was inconclusive: 12.6 µM [inhibitor, partial curve, poor fit]. In the case of `CCOC(=O)Cn1c(-c2cccs2)cc2cc(Cl)ccc21`, the Potency is reported as “inactive”. With `CCCC(=O)n1nc(-c2ccc(Cl)cc2)nc1SC` the Potency was inconclusive: 35.5 µM [activator, single point]. For `O=C(CSc1nc2cc(Cl)ccc2s1)NCC1CCCO1` (centres undefined), the Potency was inconclusive: 7.94 µM [inhibitor, partial curve, poor fit]. With `CCOC(=O)C1CCN(CC(O)COc2ccc(C(C)(C)CC)cc2)CC1` (centres undefined) the Potency was inconclusive: 35.5 µM [inhibitor, single point]. In the case of `CCc1cccc2c(-c3csc(=NC)n3C)c[nH]c12`, the Potency is reported as inconclusive: 35.5 µM [inhibitor, single point]. In the case of `O=C(Nc1ccccc1N1CCCCC1)c1cnccn1`, the Potency is reported as inconclusive: 25.1 µM [inhibitor, single point]. In the case of `COc1ccc(C(C)=O)cc1COC(=O)c1ccc2ccccc2n1`, the Potency is reported as “inactive”. With `COc1ccc(C2=NOC(C(=O)N(C)Cc3ccccc3)C2)cc1` (centres undefined) the Potency was “inactive”. For `Cc1ccnc(NC(=O)CCC(=O)N(CC(=O)NCCc2ccccc2)Cc2ccco2)c1`, the Potency was “inactive”. With `CCOC(=O)N1CCc2c(sc(NC(=O)CN3CCOCC3)c2C(=O)Nc2ccccc2)C1` the Potency was inconclusive: 10 µM [inhibitor, partial curve]. For `Cc1ccc(NS(=O)(=O)c2cccc(C(=O)NCCCN3CCCC3=O)c2)cc1`, the Potency was inconclusive: 25.1 µM [inhibitor, single point]. With `CN(C)C(=O)c1coc2nc3ccccc3nc12` the Potency was inconclusive: 0.251 µM [inhibitor, full curve, poor fit]. In the case of `Oc1ccc(Br)cc1/C=N/N1CCN(Cc2ccccc2)CC1`, the Potency is reported as inconclusive: 2 µM [activator, partial curve]. For `O=C(NCCN1C(=O)S/C(=C\c2ccccc2F)C1=O)C1=COCCO1`, the Potency was inconclusive: 3.16 µM [inhibitor, single point]. With `COc1ccccc1N1CCN(Cc2ccc(O)c3ncccc23)CC1` the Potency was inconclusive: 6.51 µM [inhibitor, single point]. For `COCC(=O)N1CCN(c2nc3ccccc3o2)CC1`, the Potency was inconclusive: 7.08 µM [activator, partial curve, poor fit]. In the case of `CCN(CC)CCCOC(=O)C(OC(C)C)(c1ccccc1)c1ccccc1`, the Potency is reported as active: 11.6 µM. With `COc1cccc(C2=N/C(=C\N(C)C)C(=O)O2)c1` the Potency was inconclusive: 0.0891 µM [activator, full curve, poor fit]. With `C=CCOc1ccccc1CN1CCC(CO)(CCOc2ccccc2)CC1` the Potency was inconclusive: 15.8 µM [inhibitor, partial curve, poor fit]. With `NC(=O)c1ccc(C(=O)N/N=C/c2cccc(Oc3ccccc3)c2)cc1` the Potency was “inactive”. With `COc1ccc(NC(=O)C(=O)NNC(=O)c2cccs2)c(OC)c1` the Potency was “inactive”. For `COc1cc(NC(=O)C2CCCO2)c(C(=O)O)cc1OC` (centres undefined), the Potency was inconclusive: 6.51 µM [inhibitor, single point]. For `Cc1n[nH]c(=O)nc1NCc1ccco1`, the Potency was inconclusive: 2 µM [inhibitor, partial curve, poor fit]. In the case of `Cn1c(/C=C/c2ccccc2)nc2ccccc2c1=O`, the Potency is reported as inconclusive: 35.5 µM [inhibitor, single point]. With `Nc1ncc2c(n1)-c1ccccc1CC2` the Potency was inconclusive: 22.4 µM [activator, single point]. In the case of `CCC[C@H](CCC(=O)Nc1ccc(C(=O)OCC)cc1)C(=O)O`, the Potency is reported as “inactive”. For `CN(C(=O)CSc1nnc(-c2ccccc2)n1C)C1CCS(=O)(=O)C1` (centres undefined), the Potency was inconclusive: 3.98 µM [activator, single point]. With `CCOC(=O)Cc1csc(NC(=O)c2sc3nc4c(C)cc(C)cc4cc3c2N)n1` the Potency was “inactive”. In the case of `CC(=O)c1cccc(N=c2scc(-c3ccc(S(=O)(=O)N4CCOCC4)cc3)n2CCO)c1`, the Potency is reported as inconclusive: 1.26 µM [inhibitor, full curve, poor fit]. In the case of `CN(CC(=O)Nc1cccc(F)c1)C(=O)c1cc(-c2cccs2)nn1-c1ccccc1`, the Potency is reported as “inactive”. In the case of `O=C(/C=C/c1ccco1)NC(=S)Nc1cc(-c2nc3ccccc3s2)ccc1Cl`, the Potency is reported as inconclusive: 3.98 µM [inhibitor, partial curve, poor fit]. For `COc1cccc(/C=N/NC(=O)c2c(-c3ccccc3)noc2C)c1O`, the Potency was active: 11.2 µM. For `CC1CCN(C(=O)CSc2nnc(Cc3cccn3C)n2CCc2ccccc2)CC1`, the Potency was inconclusive: 11.6 µM [inhibitor, partial curve, poor fit]. In the case of `Cc1ccc2nc(N=C(N)N)nc(C)c2c1`, the Potency is reported as inconclusive: 2.51 µM [inhibitor, partial curve, poor fit]. In the case of `O=C(CSc1nc2ccccc2s1)NC1CCCC1`, the Potency is reported as inconclusive: 0.224 µM [inhibitor, full curve, poor fit]. With `COCCn1c(-c2ccco2)nc2nc3ccccc3nc21` the Potency was “inactive”. In the case of `CCN(CC1COc2ccccc2O1)C(=S)Nc1ccccc1` (centres undefined), the Potency is reported as inconclusive: 7.3 µM [inhibitor, partial curve]. In the case of `Cc1ccc(NC(=O)CSc2nccc(=O)[nH]2)c(S(=O)(=O)N2CCOCC2)c1`, the Potency is reported as “inactive”. For `COc1ccc(CN(C)C(=O)c2ccc(NS(=O)(=O)c3ccc(F)cc3)cc2)c(OC)c1OC`, the Potency was inconclusive: 1.41 µM [inhibitor, single point]. For `Cc1ccc(S(=O)(=O)N(C)c2c(C)ccc(S(=O)(=O)NC(C)(C)C)c2C)cc1`, the Potency was inconclusive: 14.1 µM [inhibitor, partial curve, poor fit]. With `CCOc1ccc(-c2cc(C(=O)N/N=C/c3ccc(O)cc3)c3ccccc3n2)cc1` the Potency was inconclusive: 1.12 µM [inhibitor, full curve, poor fit]. For `CCC(C)(C)n1nnnc1C(c1cc(OC)ccc1OC)N1CCN(Cc2ccccc2)CC1` (centres undefined), the Potency was inconclusive: 12.6 µM [inhibitor, partial curve, poor fit]. In the case of `O=C(COC(=O)C1=COCCO1)Nc1ccccc1`, the Potency is reported as inconclusive: 5.62 µM [activator, single point]. With `Cc1ccc(S(=O)(=O)Cn2nnnc2C(C(C)C)N2CCSCC2)cc1` (centres undefined) the Potency was “inactive”. For `O=C(Cn1ncc2c3ccccc3n(Cc3cccc(Cl)c3)c2c1=O)NCCC1=CCCCC1`, the Potency was “inactive”. With `Cc1ccccc1Cn1c(=O)n(CCCCCC(=O)NCc2ccc3c(c2)OCO3)c(=O)c2sccc21` the Potency was “inactive”. In the case of `COc1ccc(Nc2ncc(C(=O)N3CCN(c4ccccc4OC)CC3)c3ccccc23)cc1`, the Potency is reported as inconclusive: 18.3 µM [inhibitor, single point] and inconclusive: 11.2 µM [inhibitor, partial curve, poor fit]. For `COC(=O)C1CN(C(=O)C(C)Oc2cc(C)ccc2C(C)C)c2ccccc2O1` (centres undefined), the Potency was inconclusive: 0.631 µM [inhibitor, single point].
Potency is the fitted concentration of half-maximal effect.
